# Test results published in paper PMC8658016, “Identification of New Compounds with Anticonvulsant and Antinociceptive Properties in a Group of 3-substituted (2,5-dioxo-pyrrolidin-1-yl)(phenyl)-Acetamides” (International Journal of Molecular Sciences, 2021).
# Where two headings read alike, the source gives them in different places.
# Columns and labels:
# [1] = tested on: mice; assay: Subcutaneous pentylenetetrazole (scPTZ) seizure test; assay type: in vivo, mouse; details: mice i.p.
# [2] = tested on: mice; assay: Maximal electroshock seizure (MES) test; assay type: in vivo, mouse; details: mice i.p.
# [3] = tested on: mice; assay: Psychomotor 6 Hz (32 mA) seizure test; assay type: in vivo, mouse; details: mice i.p.
# [4] = tested on: mice; details: mice i.p.; cited from earlier work
# [5] = tested on: mice; details: mice i.p.; cited from earlier work; remark: listed apart in the source
# [6] = tested on: mice; details: mice i.p.; cited from earlier work; remark: listed apart in the source
# [7] = tested on: mice; parameters: method as in PMID 32929733; details: mice i.p.; cited from earlier work
Compound,"PI (TD50/ED50), scPTZ [1]","PI (TD50/ED50), MES [2]","PI (TD50/ED50), 6 Hz (32 mA) [3]","PI (TD50/ED50), MES [4]","PI (TD50/ED50), 6 Hz (32 mA) [5]","PI (TD50/ED50), scPTZ [6]","PI (TD50/ED50), 6 Hz (44 mA) [7]"
"CN(C)C1CC(=O)N([C@@H](C(=O)N2CCN(c3cccc(C(F)(F)F)c3)CC2)c2ccccc2)C1=O.Cl (stereo partly drawn) [(C1-R)-31, 3-Dimethylamino-1-((R)-oxo-1-phenyl-2-(4-(3-(trifluoromethyl)phenyl)-piperazin-1-yl)ethyl)pyrrolidine-2,5-dione hydrochloride]",1.5,1.6,1.9,–,–,–,–
"CN(C)C1CC(=O)N([C@@H](C(=O)N2CCN(c3cccc(OC(F)(F)F)c3)CC2)c2ccccc2)C1=O.Cl (stereo partly drawn) [(C1-R)-32, 3-Dimethylamino-1-((R)-2-oxo-1-phenyl-2-(4-(3-(trifluoromethoxy)phenyl)piperazin-1-yl)ethyl)pyrrolidine-2,5-dione hydrochloride]",1.6,2.7,2.5,–,–,–,–
"CNC1CC(=O)N(C(C(=O)N2CCN(c3cccc(C(F)(F)F)c3)CC2)c2ccccc2)C1=O.Cl (centres unmarked) [Compound 13, 3-(Methylamino)-1-(2-oxo-1-phenyl-2-(4-(3-(trifluoromethyl)phenyl)piperazin-1-yl)ethyl)pyrrolidine-2,5-dione hydrochloride]",1.9,–,1.7,–,–,–,–
"CN(C)C1CC(=O)N(C(C(=O)N2CCN(c3cccc(C(F)(F)F)c3)CC2)c2ccccc2)C1=O.Cl (centres unmarked) [Compound 14, 3-(Dimethylamino)-1-(2-oxo-1-phenyl-2-(4-(3-(trifluoromethyl)phenyl)-piperazin-1-yl)ethyl)pyrrolidine-2,5-dione hydrochloride]",–,3.4,5.4,–,–,–,–
"CCN(CC)C1CC(=O)N(C(C(=O)N2CCN(c3cccc(C(F)(F)F)c3)CC2)c2ccccc2)C1=O.Cl (centres unmarked) [Compound 15, 3-(Diethylamino)-1-(2-oxo-1-phenyl-2-(4-(3-(trifluoromethyl)phenyl)piperazin-1-yl)ethyl)pyrrolidine-2,5-dione hydrochloride]",–,3.2,–,–,–,–,–
"CN(C)C1CC(=O)N(C(C(=O)N2CCN(c3cccc(OC(F)(F)F)c3)CC2)c2ccccc2)C1=O.Cl (centres unmarked) [Compound 17, 3-Dimethylamino-1-(2-oxo-1-phenyl-2-(4-(3-(trifluoromethoxy)phenyl)piperazin-1-yl)ethyl)pyrrolidine-2,5-dione hydrochloride]",2.2,1.6,3.7,–,–,–,–
"CCC1(C)CC(=O)NC1=O (centres unmarked) [ETX, ethosuximide, reference compound]",2.3 (scPTZ),–,–,–,–,–,–
O=C([C@@H](c1ccccc1)N1C(=O)CCC1=O)N1CCN(c2cccc(C(F)(F)F)c2)CC1 [II],–,–,–,13.0,12.0,8.5,–
O=C(C(c1ccccc1)N1C(=O)CCC1=O)N1CCN(c2cccc(C(F)(F)F)c2)CC1 (centres unmarked) [I],–,–,–,8.2,8.7,3.3,2.7
"COC[C@@H](NC(C)=O)C(=O)NCc1ccccc1 [LCS, lacosamide, reference compound]",–,5.0,8.8,–,–,–,6.7
"CCCC(CCC)C(=O)O [VPA, valproic acid, reference compound]",1.8,1.7,3.3,–,–,–,2.3
